Some of the results follow.
The sequences below were run against T1, OsSMF1 (Oryza sativa, UniProt Q6ZLB0 1-436) (assay: protein-binding microarray (RPBM); PBS, 2% BSA, 51.3 ng/ul salmon testes DNA, 50 uM zinc acetate, 200 nM TF, 25 C, 1 h; high values mean tight binding). Details: protein: recombinant; tags: N-terminal polyhistidine and DsRed monomer fusion (pET32a); chain copies: 2; label: CyDye5-dUTP incorporated in the synthesized complementary strand; 3' TTTTT single-stranded linker to array surface; dsDNA, one strand shown.
T1 sequence: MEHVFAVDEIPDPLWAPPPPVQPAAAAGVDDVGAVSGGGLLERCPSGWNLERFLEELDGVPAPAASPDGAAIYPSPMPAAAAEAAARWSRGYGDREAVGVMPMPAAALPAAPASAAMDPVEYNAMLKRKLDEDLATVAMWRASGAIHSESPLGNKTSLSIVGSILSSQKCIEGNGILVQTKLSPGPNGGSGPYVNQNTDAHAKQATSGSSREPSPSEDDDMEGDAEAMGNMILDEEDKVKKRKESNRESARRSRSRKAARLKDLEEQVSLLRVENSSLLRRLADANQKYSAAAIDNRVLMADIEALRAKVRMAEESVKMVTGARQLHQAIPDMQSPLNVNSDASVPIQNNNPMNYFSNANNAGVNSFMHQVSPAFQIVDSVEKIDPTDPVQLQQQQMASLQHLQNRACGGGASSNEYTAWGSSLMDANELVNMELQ
Method in brief: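 An Axon 4000B scanner gave the binding signal as per-feature fluorescence intensity in arbitrary units. This followed washing of a custom Agilent array that had been incubated for 1 h at 25 °C with 200 nM protein in PBS, 2% BSA, salmon testes DNA and 50 µM zinc acetate. The proteins were transcription factors fused at the N-terminus to polyhistidine and DsRed, expressed in E. coli BL21-CodonPlus and purified on Ni–NTA.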

Sequence	binding signal
TCGTGGGCAGGATATAGTCCACGTGGCGTCCACCTGCGCGCGGAGTCACCTAGTGCAG	28600 fluorescence intensity (a.u.)
ACGTGCTGGCGTGGGCGGACGCCGAGAGATTGAAGCGGGTCGGAGTCACCTAGTGCAG	9860 fluorescence intensity (a.u.)
TTATCTTACAAGCACAAATGATGTGGCATGTCCATATGGCCGGAGTCACCTAGTGCAG	9380 fluorescence intensity (a.u.)
GCGCGATCCGCGTCTCCGACTCAGTCAGATCTCCGTCCGTCGGAGTCACCTAGTGCAG	3560 fluorescence intensity (a.u.)
GATCGATATATATTATATATTTGAGTAAATTTCGTAAATTCGGAGTCACCTAGTGCAG	18600 fluorescence intensity (a.u.)
TTTAATCTGTTATTAGTCATCCATCACAATCCAAGCAAGTCGGAGTCACCTAGTGCAG	3380 fluorescence intensity (a.u.)
CACCACTCTCTCTCCACCTCATCCATACATGCATGCATGCCGGAGTCACCTAGTGCAG	7130 fluorescence intensity (a.u.)
CATGGTGAATTGGTGATTTTATAATGATGCTAAGCTTTGACGGAGTCACCTAGTGCAG	3660 fluorescence intensity (a.u.)
AAGGGGTGGGCGGCAGGGATGCGGTGGGCGATGAGGGAGACGGAGTCACCTAGTGCAG	3560 fluorescence intensity (a.u.)
CGCGGGTTTGCGTGCCAACGTTTGACTGTTCGTCTTATATCGGAGTCACCTAGTGCAG	4070 fluorescence intensity (a.u.)
TTCGACCACCACGCATCGCCTGCTCTGCCGCGGCGACGCGCGGAGTCACCTAGTGCAG	15300 fluorescence intensity (a.u.)
AATTAACCTCATTATCATTTCATTTCACAACTTCTTTTGGCGGAGTCACCTAGTGCAG	19000 fluorescence intensity (a.u.)
AACAAGGTTTGGGGCCTTAGGGGTGATTGTTCACCGTTGACGGAGTCACCTAGTGCAG	32200 fluorescence intensity (a.u.)
AGAGTATTAGCACAGTACCAGTGCACTTCACAAGGAGCTTCGGAGTCACCTAGTGCAG	3520 fluorescence intensity (a.u.)
CCACCTCTATCCCTAGTTGGTGACTAAATTCTGGAGCGGTCGGAGTCACCTAGTGCAG	3340 fluorescence intensity (a.u.)
GCTAGTAGTAGTGAGCTTGTTGCTTTTGTTGCGTTGCTCCCGGAGTCACCTAGTGCAG	3210 fluorescence intensity (a.u.)
ACCGTCCTCGCGACCTCGCCTCTTATCATCCCGCGAATAACGGAGTCACCTAGTGCAG	3380 fluorescence intensity (a.u.)
TCAACACCGCCACGTCAACACCATGTCAGTGAAACCACCCCGGAGTCACCTAGTGCAG	24200 fluorescence intensity (a.u.)
GGGAGACGGCTTGCCGCCTCTTCTCCTTCCCGCTCCGCGCCGGAGTCACCTAGTGCAG	12600 fluorescence intensity (a.u.)
AGGGTGGCGAAGCGCGGAGGGCGGCGCGGCGCGCAGCGATCGGAGTCACCTAGTGCAG	3480 fluorescence intensity (a.u.)
ATGCTTGTCTGTACCCGCTCCTCCTTCCACGCCATCGCGTCGGAGTCACCTAGTGCAG	3920 fluorescence intensity (a.u.)
TGAAAGCATCCGGTAATTGGCAACTTTGAATGCATCGTTTCGGAGTCACCTAGTGCAG	3790 fluorescence intensity (a.u.)
AGTGGTAAACGATGTATCCATTGACAACGAGACAACTGTGCGGAGTCACCTAGTGCAG	3330 fluorescence intensity (a.u.)
AAGAGGGTGGGTTGTTGGGGAGAGGGGAGGGAGGAGGATTCGGAGTCACCTAGTGCAG	3320 fluorescence intensity (a.u.)
TATAGTCGCTGTCATCTTACACGTGTATATTACACGTGTACGGAGTCACCTAGTGCAG	10100 fluorescence intensity (a.u.)
AAAACAGAAAGCAAAGTTGGTGGCGCCATCAAACATCACACGGAGTCACCTAGTGCAG	3540 fluorescence intensity (a.u.)
CATACATGCATGTACTATGAATTCTTGACCTATTAGTAATCGGAGTCACCTAGTGCAG	20100 fluorescence intensity (a.u.)

Sequence	binding signal
CAAAATGATTTGGTGAATCTAGCCAGCACATACCAATACGCGGAGTCACCTAGTGCAG	3550 fluorescence intensity (a.u.)
AAGAAAAGAAGACTAAAATGAGTCACCACTTCCATTCTAACGGAGTCACCTAGTGCAG	11300 fluorescence intensity (a.u.)
TGATCCAAAAGAAACATCGCACGTTTGCAGATGCTGTCTCCGGAGTCACCTAGTGCAG	16700 fluorescence intensity (a.u.)
CCCTTCCGACATCCGGTCAAACGTCCGATGTGACACCTAACGGAGTCACCTAGTGCAG	3700 fluorescence intensity (a.u.)
AGTGATGATCCTTAGCATCATGGTGACCGCTCATCAGCCACGGAGTCACCTAGTGCAG	3240 fluorescence intensity (a.u.)
AGCGCGTCCACGTGCTCCCGGCGTGCGGGCACAGCTCCCGCGGAGTCACCTAGTGCAG	4760 fluorescence intensity (a.u.)
TCTTTTATGCTGCAATGGTAATTAGAAGAATATCGATCATCGGAGTCACCTAGTGCAG	3180 fluorescence intensity (a.u.)
TCTCCGTTCAGTGAATTATGTAATAAGTTGCTGTAACTTGCGGAGTCACCTAGTGCAG	3350 fluorescence intensity (a.u.)
ACTTGCAGGTGACGCACACGTACGTACTCACACAGCTAAGCGGAGTCACCTAGTGCAG	7080 fluorescence intensity (a.u.)
AAACTCGGTCACTTAAGGATAAACTTCATTTAGTAGATTGCGGAGTCACCTAGTGCAG	3650 fluorescence intensity (a.u.)
GCTAATCAAATCCATCATGAGAGACACGCTCCGCTGGACTCGGAGTCACCTAGTGCAG	3290 fluorescence intensity (a.u.)
TATAGTGTAGGGATGAGATGACGTGGCTTCACCACAACACCGGAGTCACCTAGTGCAG	15300 fluorescence intensity (a.u.)
AAATTTGTACCATCTTGTTGTCCATCATTCTTGACAAGAGCGGAGTCACCTAGTGCAG	3280 fluorescence intensity (a.u.)
TCCTCGCCTGCTTCCGTTGAGCCAGTCAGCCTCCTCCCTTCGGAGTCACCTAGTGCAG	3160 fluorescence intensity (a.u.)
TTCGTAAAGGTTGCCGGTGACGTTAGAACATTGCTCACCTCGGAGTCACCTAGTGCAG	4700 fluorescence intensity (a.u.)
GATCAATGTCGCCTGTCAGCTCAGTTCAGTTTTACCTCCCCGGAGTCACCTAGTGCAG	3870 fluorescence intensity (a.u.)
GTGTGGTCTGTGGAGTGTATGGTTGATTTGGTTGGTAATTCGGAGTCACCTAGTGCAG	18000 fluorescence intensity (a.u.)
ATCCCTACGTAAACCCGGGACGCTAGGTGTATTCTTTATTCGGAGTCACCTAGTGCAG	16800 fluorescence intensity (a.u.)
ACCGGTGACCTGTAGCCACGCGCGTGGTAAATACGAAGCCCGGAGTCACCTAGTGCAG	3870 fluorescence intensity (a.u.)
AAGGTGATAGGGTCTCAAGTACGTCATTATGAATGTAAATCGGAGTCACCTAGTGCAG	3910 fluorescence intensity (a.u.)
TCGAACTTCATCGAAGACGATGATGCAAGCACAGGTAGCTCGGAGTCACCTAGTGCAG	5020 fluorescence intensity (a.u.)
GGTCAGATTCTTTCGCTGACGGAATCGCCATTATTATTTCCGGAGTCACCTAGTGCAG	20400 fluorescence intensity (a.u.)
TTCGACACAGTCATACGTGAGTCGGATGGAGTTAGGTCTGCGGAGTCACCTAGTGCAG	4150 fluorescence intensity (a.u.)
CTCAAGGATCTGCTTCACCGCAGCGCTGATGCTGCCAAGTCGGAGTCACCTAGTGCAG	3470 fluorescence intensity (a.u.)
CATACAGGGATGAGGTGTGACTGAGGTGGCTGTCATGTAGCGGAGTCACCTAGTGCAG	5610 fluorescence intensity (a.u.)
AAACGTGCAGTACAACGTGCACACGTATGTCGGTATGTGTCGGAGTCACCTAGTGCAG	6500 fluorescence intensity (a.u.)
AGTGCTACTACTACGTGGAGAGCAGAGCACTAGCAGAGTGCGGAGTCACCTAGTGCAG	3320 fluorescence intensity (a.u.)

Part of the list above, as a markdown table.

| Sequence | binding signal |
| --- | --- |
| GATCAATGTCGCCTGTCAGCTCAGTTCAGTTTTACCTCCCCGGAGTCACCTAGTGCAG | 3870 fluorescence intensity (a.u.) |
| GTGTGGTCTGTGGAGTGTATGGTTGATTTGGTTGGTAATTCGGAGTCACCTAGTGCAG | 18000 fluorescence intensity (a.u.) |
| ATCCCTACGTAAACCCGGGACGCTAGGTGTATTCTTTATTCGGAGTCACCTAGTGCAG | 16800 fluorescence intensity (a.u.) |
| ACCGGTGACCTGTAGCCACGCGCGTGGTAAATACGAAGCCCGGAGTCACCTAGTGCAG | 3870 fluorescence intensity (a.u.) |

Source: publication PMC7819943, “Rice protein-binding microarrays: a tool to detect cis-acting elements near promoter regions in rice”
